Consider 2 sequences from patent US20200362349.

Chains of the proteins cited; added tags and fusions are not shown. Chains listed by the source or under a name are the forms on record and can include a tag or linker. Residues count along the entry.
UniProt P10696, 20-503: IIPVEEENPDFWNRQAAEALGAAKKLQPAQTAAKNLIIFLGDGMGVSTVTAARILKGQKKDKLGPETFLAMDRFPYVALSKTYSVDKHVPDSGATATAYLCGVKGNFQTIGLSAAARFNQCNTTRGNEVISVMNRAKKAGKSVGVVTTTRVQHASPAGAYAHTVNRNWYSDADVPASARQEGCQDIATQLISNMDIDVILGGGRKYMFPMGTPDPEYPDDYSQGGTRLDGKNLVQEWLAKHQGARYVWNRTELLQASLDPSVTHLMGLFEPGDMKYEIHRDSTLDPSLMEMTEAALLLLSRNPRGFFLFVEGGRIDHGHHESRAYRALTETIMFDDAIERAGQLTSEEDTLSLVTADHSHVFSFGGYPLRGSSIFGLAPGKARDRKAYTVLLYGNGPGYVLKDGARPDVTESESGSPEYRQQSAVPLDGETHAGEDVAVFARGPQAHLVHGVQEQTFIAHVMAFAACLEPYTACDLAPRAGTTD
UniProt P05187, 23-506: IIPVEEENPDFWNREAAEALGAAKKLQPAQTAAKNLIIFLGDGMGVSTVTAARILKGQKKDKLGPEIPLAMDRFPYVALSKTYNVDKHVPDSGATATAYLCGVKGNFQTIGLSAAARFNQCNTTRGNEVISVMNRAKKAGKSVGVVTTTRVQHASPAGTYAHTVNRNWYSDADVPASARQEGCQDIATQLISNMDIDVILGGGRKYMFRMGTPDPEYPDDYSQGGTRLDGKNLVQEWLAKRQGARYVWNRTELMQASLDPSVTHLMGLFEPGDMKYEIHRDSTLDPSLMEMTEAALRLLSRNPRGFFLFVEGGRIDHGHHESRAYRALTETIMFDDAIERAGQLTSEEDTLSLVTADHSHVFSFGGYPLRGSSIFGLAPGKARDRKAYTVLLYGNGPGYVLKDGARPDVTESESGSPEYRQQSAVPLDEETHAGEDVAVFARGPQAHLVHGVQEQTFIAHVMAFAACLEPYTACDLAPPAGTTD
alkaline phosphatase heterodimer IAP/PALP (ALPI/ALPP) on LoVo cells (Homo sapiens), one chain, as listed by the source: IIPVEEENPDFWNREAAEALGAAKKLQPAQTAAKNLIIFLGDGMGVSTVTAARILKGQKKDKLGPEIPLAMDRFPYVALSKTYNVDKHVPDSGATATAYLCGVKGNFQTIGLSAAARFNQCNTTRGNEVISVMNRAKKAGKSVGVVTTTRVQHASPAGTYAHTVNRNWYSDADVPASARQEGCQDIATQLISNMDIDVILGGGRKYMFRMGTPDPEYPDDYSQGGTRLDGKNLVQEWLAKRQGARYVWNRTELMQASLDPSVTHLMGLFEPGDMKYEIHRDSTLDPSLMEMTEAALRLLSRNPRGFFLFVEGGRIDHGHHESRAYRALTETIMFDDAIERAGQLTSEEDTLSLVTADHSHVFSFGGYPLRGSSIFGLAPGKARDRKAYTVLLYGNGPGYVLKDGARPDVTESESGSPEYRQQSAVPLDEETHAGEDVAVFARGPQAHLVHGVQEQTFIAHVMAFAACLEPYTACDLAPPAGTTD
alkaline phosphatase heterodimer IAP/GCAP co-expressed in PC-3 cells (Homo sapiens), one chain, as listed by the source: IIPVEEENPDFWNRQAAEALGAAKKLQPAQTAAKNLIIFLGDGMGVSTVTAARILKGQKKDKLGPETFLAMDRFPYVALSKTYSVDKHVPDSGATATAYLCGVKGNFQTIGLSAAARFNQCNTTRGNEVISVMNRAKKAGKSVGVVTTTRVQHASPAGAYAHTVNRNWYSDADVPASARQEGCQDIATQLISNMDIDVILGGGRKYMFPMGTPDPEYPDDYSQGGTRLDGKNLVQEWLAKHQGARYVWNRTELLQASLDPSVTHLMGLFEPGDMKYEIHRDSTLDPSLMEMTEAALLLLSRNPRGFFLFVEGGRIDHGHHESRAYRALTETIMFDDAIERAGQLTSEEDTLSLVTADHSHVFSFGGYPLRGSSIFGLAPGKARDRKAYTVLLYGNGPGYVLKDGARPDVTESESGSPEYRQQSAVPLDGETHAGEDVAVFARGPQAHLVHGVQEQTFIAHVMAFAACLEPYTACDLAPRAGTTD

Data set [1] relates to alkaline phosphatase heterodimer IAP/PALP (ALPI/ALPP) on LoVo cells (Homo sapiens). Kind of data set: competition with a labelled probe. Conditions: 4 uM competitor vs 100 nM BG2-FAM on LoVo cells, on ice; protein on the cell surface; protein details: endogenous, LoVo colon cancer cells; single-stranded DNA; variant of BG2.
Data set [2] has as its target germ cell alkaline phosphatase GCAP (ALPPL2) expressed alone (Homo sapiens) (UniProt P10696). As to the kind of experiment: flow cytometry. Conditions: protein on the cell surface; protein details: pcDNA3.1(-) vector, transfected PC-3; label: 5'-FAM or 5'-biotin; single-stranded DNA.
Data set [3] has as its system alkaline phosphatase heterodimer IAP/PALP co-expressed in PC-3 cells (Homo sapiens). As to the kind of experiment: flow cytometry. Conditions: protein on the cell surface; protein details: pCMV-myc vectors, transfected PC-3; label: 5'-FAM or 5'-biotin; single-stranded DNA. A general note: A flow cytometer gives signals particle by particle.
Data set [4] has as its system alkaline phosphatase heterodimer IAP/GCAP co-expressed in PC-3 cells (Homo sapiens). As to the kind of experiment: flow cytometry. The conditions noted are these: protein on the cell surface; label: 5'-FAM or 5'-biotin; single-stranded DNA.
Data set [5] has as its target placental alkaline phosphatase PALP (ALPP) expressed alone (Homo sapiens) (UniProt P05187). Kind of data set: flow cytometry. The conditions noted are these: protein on the cell surface; protein details: pCMV-myc vector, transfected PC-3; label: 5'-FAM or 5'-biotin; single-stranded DNA.
The target in data set [6] is T1, intestinal alkaline phosphatase IAP (ALPI) expressed alone (Homo sapiens) (UniProt P09923).
T1 sequence (looked up, limits assumed): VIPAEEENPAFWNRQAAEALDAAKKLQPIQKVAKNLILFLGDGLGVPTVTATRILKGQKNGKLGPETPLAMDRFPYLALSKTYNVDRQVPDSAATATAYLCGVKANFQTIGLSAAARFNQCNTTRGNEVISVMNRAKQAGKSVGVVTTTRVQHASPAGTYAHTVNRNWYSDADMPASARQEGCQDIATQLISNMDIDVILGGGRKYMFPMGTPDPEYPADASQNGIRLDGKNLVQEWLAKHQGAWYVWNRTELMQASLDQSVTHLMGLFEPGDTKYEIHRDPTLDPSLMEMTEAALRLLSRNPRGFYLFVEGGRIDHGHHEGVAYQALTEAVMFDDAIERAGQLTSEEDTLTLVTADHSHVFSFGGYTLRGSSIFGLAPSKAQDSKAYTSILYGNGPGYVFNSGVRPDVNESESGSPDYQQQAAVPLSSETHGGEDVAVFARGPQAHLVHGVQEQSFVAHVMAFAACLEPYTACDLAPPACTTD
Kind of data set: flow cytometry. The conditions noted are these: protein on the cell surface; protein details: pCMV-myc vector, transfected PC-3; label: 5'-FAM or 5'-biotin; single-stranded DNA.

Data set [7] relates to soluble alkaline phosphatase heterodimer in LoVo culture medium (Homo sapiens). As to the kind of experiment: pull-down. The conditions noted are these: 10 nM BG2-Bio, 4 C, phosphatase activity readout, protein in an extract, protein details: endogenous, secreted, label: 5'-FAM or 5'-biotin, single-stranded DNA.

Results from cells or extracts need not show a direct contact. For some of these results: A negative result means that nothing was seen under these conditions. For some of these results: Tags and fusion partners may be left off the protein sequences shown. For some of these results: The exact form of at least one protein or probe is not confirmed.

“TAGGGGTCGGTGTGGGTGGTTATGATTGGC [BG2 loop region sequence 7]”: the binding result in data set [1] is reported as “binds”.
Regarding “CAAGGAATAGGGGTCGGTGTGGGTGGTTATGATTGGCTTCCTTG [BG2]”, the binding result in data set [2] is given as “no binding”; in data set [3] it was “binds”; in data set [4], “binds”; in data set [5], “no binding”; in data set [6], “no binding”; in data set [7], “binds”.
